# Reference: patent publication US5853984, “Use of nucleic acid ligands in flow cytometry” (NeXstar Pharmaceuticals, Inc.)
# For at least one entry, the source does not settle the construct or the ends of the probe. Protein sequences can lack the tags named with them.
# Tests used:
# [1] = target: T1, Human neutrophil elastase (HNE) (Homo sapiens) (UniProt P08246); experiment: flow cytometry; settings: purified native protein, single-stranded DNA, letters built from the parent sequence and the stated change, variant of PARENT (45-nt HNE DNA ligand)
# T1 sequence (looked up, limits assumed): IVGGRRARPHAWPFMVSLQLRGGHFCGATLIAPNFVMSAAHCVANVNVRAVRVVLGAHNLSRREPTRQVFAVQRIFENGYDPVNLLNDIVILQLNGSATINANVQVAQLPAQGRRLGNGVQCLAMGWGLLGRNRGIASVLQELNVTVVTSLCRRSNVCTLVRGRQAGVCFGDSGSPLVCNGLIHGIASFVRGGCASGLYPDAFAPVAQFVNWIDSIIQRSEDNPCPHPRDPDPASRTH
# [2] = target: T1, Human neutrophil elastase (HNE) (Homo sapiens); experiment: filter binding; settings: 150 mM NaCl, 100 mM Tris-HCl pH 7.0, 2 mM MgCl2, 6 mM KCl, 0.02% HSA, 37 C, purified native protein, single-stranded DNA, letters built from the parent sequence and the stated change, variant of PARENT (45-nt HNE DNA ligand)
# [3] = target: T1, Human neutrophil elastase (HNE) (Homo sapiens); experiment: binding assay; settings: CITED from US 5,472,841; printed as 17 nm; purified native protein; single-stranded DNA
# [4] = target: T1, Human neutrophil elastase (HNE) (Homo sapiens); experiment: pull-down; settings: 5' 32P-labeled DNA, HNE on beads, scintillation counting, 37 C, purified native protein, label: fluorescein, single-stranded DNA, letters built from the parent sequence and the stated change, variant of PARENT (45-nt HNE DNA ligand)
# [5] = fluorescein at 5' end (n1) [5' fluorescein (n1, left out) attached before T1], label: fluorescein
# [6] = head-to-tail dimer linked by ethylene glycol linkers (L) with two fluoresceins (LFLFL) [LFLFL (ethylene glycol linkers L and two fluoresceins F; n46-n50, left out) between T45 and T46], label: fluorescein x2
# [7] = two hexaethylene glycol spacers then fluorescein near 3' end [two hexaethylene glycol spacers + fluorescein (n46-n48, left out) between T45 and T46], label: fluorescein
# [8] = fluorescein as penultimate 3' residue [fluorescein (n46, left out) between T45 and T46], label: fluorescein
sequence,measurement,setting,value
TAGCGATACTGCGTGGGTTGGGGCGGGTAGGGCCAGCAGTCTCGT [DNA-5F],Kd,[1]; [5],154 nM
same,Kd,[2]; [5],13 nM
TAGCGATACTGCGTGGGTTGGGGCGGGTAGGGCCAGCAGTCTCGTTAGCGATACTGCGTGGGTTGGGGCGGGTAGGGCCAGCAGTCTCGT [DNA-DIMER-HT],Kd,[1]; [6],15 nM
same,Kd,[2]; [6],0.5 nM
TAGCGATACTGCGTGGGTTGGGGCGGGTAGGGCCAGCAGTCTCGTT [PARENT (45-nt HNE DNA ligand)],Kd,[3],17 nM
TAGCGATACTGCGTGGGTTGGGGCGGGTAGGGCCAGCAGTCTCGTT [DNA-LNK-3F],Kd,[1]; [7],90 nM
same,Kd,[2]; [7],17.5 nM
same,Kd,"[4]; two hexaethylene glycol spacers then fluorescein near 3' end [two hexaethylene glycol spacers + fluorescein (n46-n48, left out) between T45 and T46]",300 nM
TAGCGATACTGCGTGGGTTGGGGCGGGTAGGGCCAGCAGTCTCGTT [DNA-3F],Kd,[1]; [8],120 nM
same,Kd,[2]; [8],6.6 nM
same,Kd,"[4]; fluorescein as penultimate 3' residue [fluorescein (n46, left out) between T45 and T46]",140 nM
